Binding data for 1 substance are collected here from article PMC3359988.

For this assay, the target named is VpsT (Vibrio cholerae) (UniProt K7RXY0). Briefly: two-hybrid.

These are yes or no findings as the source states them, for the method shown. Some binding calls cover weakened binding; strength is not graded here.

VpsT (from UniProt K7RXY0 1-224): the binding result was “binds”.
